Experimental data as given in publication PMC10163288.
The other results are listed elsewhere or left out.

B1: il10ra_site1_normal_mot_HHH_b1_05056_000000217_0001_1_20_H_._HHH_b1_03397_af2_0001_0000100002_0000001_0_af2pred_0001 (protein)
chain: SSSSDEEVEELFKEAEEALKEGDREKASRLVLEAAKLAKELNDEELLQRIFRLLRRIHEASSSSS
B2: il10ra_site1_normal_mot_HHH_b2_02337_000000026_0001_38_52_H_._HHH_b1_06566_af2_0001_0000200012_0000001_0 (protein)
chain: SSSSSDEVEELLKEAEELLEEGNPREAARVAARATHHALRLGDAELLQEVWELVQEIAKLSSSSS
B3: il10ra_site1_normal_mot_HHH_b1_02997_000000220_0001_39_52_H_._HHH_b1_05536_0001_0000200023_0000001_1_af2pred_0001 (protein)
chain: SSSSDEEESREAFEILREALHIDDPEEVEELLERAQELAEEANNTALEINIKFALEHLKRSSSSS
B4: il10ra_site1_normal_mot_HHH_b1_04771_000000013_0001_40_56_H_._HHH_b2_03705_af2_0001_0000300016_0000002_0 (protein)
chain: SSSSNELVQRAAELSLKAFRLALRGNPEEAQEVLKEAEEVAEEGGDERLQRVIRDLLQALSSSSS
B5: il10ra_site1_normal_mot_HHH_b1_07256_000000044_0001_1_17_H_._HHH_eva_0781_0001_0000100004_0000003_0 (protein)
chain: SSSSSDEILEIIQHIARAAFRLGDPRLSELAVLLAEAYREGDEELQREVEELAEEVIKESSSSSS
B6: il10ra_site1_sap_11_mot_HHH_b2_00943_af2_000000149_0001_1_17_H_._HHH_b1_04515_af2_0001_0000200012_0000002_0_0001_af2pred_0001 (protein)
chain: SSSSSDEEEEEVEELLEEAKRIEDPAELAYVLLRAYAVAYRGNNPELRELVEEVAQELVRSSSSS
B7: il10ra_site1_normal_mot_HHH_b2_01205_000000166_0001_1_19_H_._HHH_b1_02799_0001_0000100005_0000002_0 (protein)
chain: SSSSDEENRRVYELIREAFELLEEGDEEEARRILEEAHEIAEEAGNYAALFSVELLLRQLKSSSS
B8: il10ra_site1_sap_31_mot_HHH_b1_06914_000000280_0001_1_18_H_._HHH_b2_04165_af2_0001_0000200004_0000001_0_0001 (protein)
chain: SSSSDEEKKRLLHLAWRLIRRYIEEGDPELREELEELLEEAREHGNQVVVKIIEFFLERFSSSSS
B9: il10ra_site1_normal_mot_HHH_b1_02004_000000220_0001_1_19_H_._HHH_b1_04324_af2_0001_0000400012_0000002_0 (protein)
chain: SSSSDEEFEEFKRLVEKVAELLEEGDEEEAEELIRRLEELAEERNTPALKWSVRLLKRVLSSSSS
B10: il10ra_site1_normal_mot_HHH_b1_01821_000000158_0001_23_39_H_._HHH_b2_04081_0001_0000200009_0000001_0 (protein)
chain: SSSSDVEERIEELIERAEELVEEGNPKEASRLLLEAVQLAYEIQDPELLQEIWEVFRKLFSSSSS
B11: il10ra_site1_sap_18_mot_HHH_b2_05984_000000071_0001_38_52_H_._HHH_b2_05995_0001_0000400025_0000001_0_0001 (protein)
chain: SSSSTEAARELYRLMREAVELDSEGNPEEARKVAEEAEELAEEAGNRVLLYTIRNLLKLINSSSS
B12: il10ra_site1_normal_mot_8756ee2cf497b5429c717dfc0c0bcfd6_0001_000000186_0001_1_13_H_._HHH_b1_06364_0001_0000400027_0000002_0_af2pred_0001 (protein)
chain: SSSSTVEEIYRLIRRVAELLHEGNPEEAREVLKEAKELAEEAGSLVLRAQLEYLEEIAEQLSSSS
B13: il10ra_site1_sap_16_mot_HHH_b2_06497_000000202_0001_1_20_H_._HHH_b2_00195_0001_0000400029_0000001_0_0001 (protein)
chain: SSSSSDEEEEEVEELLQEAERIEDPRERIEVLLRAVQIALHLGNPELLRKIWEVFRKLVSSSSSS
B14: il10ra_site1_sap_11_mot_HHH_b2_03328_af2_000000127_0001_1_19_H_._HHH_b2_01985_0001_0000500027_0000001_0_0001 (protein)
chain: SSSSNEEARELFELIEELVQLVRNGDEERFEELLREVKELAEEANNEAFLWVVEWLEKLLTSSSS
B15: il10ra_site1_sap_20_mot_HHH_b2_05454_000000273_0001_1_18_H_._HHH_b2_02369_0001_0000400025_0000002_0_0001 (protein)
chain: SDLSEVEEILRKIREIAEERGNESVQRSVEWLERVLEHAKERNDEELERAVEIYARFLLALVENS
B16: il10ra_site1_normal_mot_HHH_b2_05343_000000235_0001_19_35_H_._HHH_b2_03338_0001_0000100008_0000001_0 (protein)
chain: SSSSDEDEEEVQRLLEEAKESDDVQEVFELLKKAIEVAAETRNQELFRLIMEVIREILENSSSSS
B17: il10ra_site1_sap_20_mot_HHH_b2_02927_000000097_0001_42_56_H_._HHH_eva_0506_af2_0001_0000200006_0000002_0_0001 (protein)
chain: SSSSDEAYEIARRAIEEAKELWEEGNPEEVKRILEEAIELLEELNTVAAVFSLRHLLEALSSSSS
B18: il10ra_site1_sap_13_mot_HHH_b2_01729_af2_000000109_0001_43_56_H_._ems_3hC_807_af2_0001_0000900023_0000002_0_0001_af2pred_dldesign_0_af2pred (protein)
chain: SSSSDPLAELEALIDRLKAELGLSEEDRHKLRILLDYLTAAGYSKERIEELLETAARYLAESSSS

Molecular target: il10ra, Q13651
Assay: yeast display titration

B1 was tested. Which “apparent Kd” value did it give?
Its value is “inactive: no binding seen”.

How did the “apparent Kd” value turn out when B2 was run?
The value was “inactive: no binding seen”.

B3 was tested. Which apparent Kd did it give?
The apparent Kd was inactive: > 826 nM.

Which “apparent Kd” value does the source give for B4 here?
Its value is “inactive: no binding seen”.

For B5, which “apparent Kd” value is on record?
Its value is “inactive: no binding seen”.

Which “apparent Kd” value does the source give for B6 here?
Its value is “inactive: no binding seen”.

With B7 as the binder, how does the “apparent Kd” value read?
Its value is “inactive: no binding seen”.

How did the “apparent Kd” value turn out when B8 was run?
Its value is “inactive: no binding seen”.

Which “apparent Kd” value does the source give for B9 here?
Its value is “inactive: no binding seen”.

Which “apparent Kd” value does the source give for B10 here?
Its value is “inactive: no binding seen”.

B11 was tested. Which “apparent Kd” value did it give?
The value was “inactive: no binding seen”.

Which “apparent Kd” value does the source give for B12 here?
Its value is “inactive: no binding seen”.

B13 was tested. Which “apparent Kd” value did it give?
The value was “inactive: no binding seen”.

Which “apparent Kd” value does the source give for B14 here?
The value was “inactive: no binding seen”.

Which “apparent Kd” value does the source give for B15 here?
The value was “inactive: no binding seen”.

How did the “apparent Kd” value turn out when B16 was run?
Its value is “inactive: no binding seen”.

B17 was tested. Which “apparent Kd” value did it give?
Its value is “inactive: no binding seen”.

Which “apparent Kd” value does the source give for B18 here?
Its value is “inactive: no binding seen”.
